# Laboratory results: the supplement of paper PMC8728848
# This is one part of the list.
# Assays:
# Test in all cases: glycan array binding signal (z-score within array); higher = stronger binding
# Conditions in all cases: glycan notation: IUPAC condensed, linker removed
# [1] = target: Gal(b1-2)Gal
# How it was run: (§1)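 Negative Z-scores can be read as non-binding. The Z-score is calculated within each array and then averaged across arrays of one protein sequence at different concentrations or buffers and across linkers. Arrays, 3228 in all, were curated from the Consortium for Functional Glycomics database and kept only where the protein sequence was available.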
# [2] = target: Gal(b1-3)Gal
# How it was run: as §1
# [3] = target: Gal(b1-3)Gal(b1-4)GlcNAc
# How it was run: as §1
# [4] = target: Gal(b1-3)GalNAc
# How it was run: as §1
# [5] = target: Gal(b1-3)GalNAc(b1-3)Gal(a1-4)Gal(b1-4)Glc
# How it was run: as §1
# [6] = target: Gal(b1-3)GalNAc(b1-4)Gal(b1-4)Glc
# How it was run: as §1
# [7] = target: Gal(b1-3)GalNAc(b1-4)[Neu5Ac(a2-3)]Gal(b1-4)Glc
# How it was run: as §1
# [8] = target: Gal(b1-3)GlcNAc
# How it was run: as §1
# [9] = target: Gal(b1-3)GlcNAc(b1-3)Gal(b1-3)GlcNAc
# How it was run: as §1
# [10] = target: Gal(b1-3)GlcNAc(b1-3)Gal(b1-4)Glc
# How it was run: as §1
# [11] = target: Gal(b1-3)GlcNAc(b1-3)Gal(b1-4)GlcNAc
# How it was run: as §1
# [12] = target: Gal(b1-3)[Fuc(a1-4)]GlcNAc
# How it was run: as §1
# [13] = target: Gal(b1-3)[Fuc(a1-4)]GlcNAc(b1-3)Gal(b1-3)[Fuc(a1-4)]GlcNAc
# How it was run: as §1
# [14] = target: Gal(b1-3)[Fuc(a1-4)]GlcNAc(b1-3)Gal(b1-4)GlcNAc
# How it was run: as §1
# [15] = target: Gal(b1-3)[Fuc(a1-4)]GlcNAc(b1-3)Gal(b1-4)[Fuc(a1-3)]GlcNAc
# How it was run: as §1
# [16] = target: Gal(b1-3)[GlcNAc(b1-6)]GalNAc
# How it was run: as §1
# [17] = target: Gal(b1-3)[Neu5Ac(a2-6)]GalNAc
# How it was run: as §1
# [18] = target: Gal(b1-3)[Neu5Ac(a2-6)]GlcNAc(b1-6)Gal(b1-4)Glc
# How it was run: as §1
# [19] = target: Gal(b1-3)[Neu5Ac(b2-6)]GalNAc
# How it was run: as §1
# [20] = target: Gal(b1-4)GalNAc(a1-3)[Fuc(a1-2)]Gal(b1-4)GlcNAc
# How it was run: as §1
# [21] = target: Gal(b1-4)GalNAc(b1-3)[Fuc(a1-2)]Gal(b1-4)GlcNAc
# How it was run: as §1
# [22] = target: Gal(b1-4)Glc
# How it was run: as §1
# [23] = target: Gal(b1-4)Glc6S
# How it was run: as §1
# [24] = target: Gal(b1-4)GlcNAc
# How it was run: as §1
# [25] = target: Gal(b1-4)GlcNAc(a1-6)Gal(b1-4)GlcNAc
# How it was run: as §1
# [26] = target: Gal(b1-4)GlcNAc(b1-2)Man(a1-3)[Gal(b1-4)GlcNAc(b1-2)Man(a1-6)]Man(b1-4)GlcNAc(b1-4)GlcNAc
# How it was run: as §1
# [27] = target: Gal(b1-4)GlcNAc(b1-3)Gal(b1-3)GlcNAc
# How it was run: as §1
# [28] = target: Gal(b1-4)GlcNAc(b1-3)Gal(b1-4)Glc
# How it was run: as §1
# [29] = target: Gal(b1-4)GlcNAc(b1-3)Gal(b1-4)GlcNAc
# How it was run: as §1
# [30] = target: Gal(b1-4)GlcNAc(b1-3)Gal(b1-4)GlcNAc(b1-3)Gal(b1-4)GlcNAc
# How it was run: as §1
# [31] = target: Gal(b1-4)GlcNAc(b1-3)Gal(b1-4)[Fuc(a1-3)]GlcNAc(b1-3)Gal(b1-4)[Fuc(a1-3)]GlcNAc
# How it was run: as §1
# [32] = target: Gal(b1-4)GlcNAc(b1-3)GalNAc
# How it was run: as §1
# [33] = target: Gal(b1-4)GlcNAc(b1-3)[Gal(b1-4)GlcNAc(b1-6)]Gal(b1-4)GlcNAc
# How it was run: as §1
# [34] = target: Gal(b1-4)GlcNAc(b1-3)[Gal(b1-4)GlcNAc(b1-6)]GalNAc
# How it was run: as §1
# [35] = target: Gal(b1-4)GlcNAc(b1-3)[GlcNAc(b1-6)]Gal(b1-4)GlcNAc
# How it was run: as §1
# [36] = target: Gal(b1-4)GlcNAc(b1-6)Gal(b1-4)GlcNAc
# How it was run: as §1
# [37] = target: Gal(b1-4)GlcNAc(b1-6)Gal(b1-4)GlcNAc(b1-6)GalNAc
# How it was run: as §1
# [38] = target: Gal(b1-4)GlcNAc(b1-6)GalNAc
# How it was run: as §1
# [39] = target: Gal(b1-4)GlcNAc(b1-6)[Gal(b1-3)]GalNAc
# How it was run: as §1
# [40] = target: Gal3S(b1-3)GalNAc
# How it was run: as §1
# [41] = target: Gal3S(b1-3)GlcNAc
# How it was run: as §1
# [42] = target: Gal3S(b1-3)[Fuc(a1-4)]GlcNAc
# How it was run: as §1
# [43] = target: Gal3S(b1-4)Glc
# How it was run: as §1
# [44] = target: Gal3S(b1-4)Glc6S
# How it was run: as §1
# [45] = target: Gal3S(b1-4)GlcNAc
# How it was run: as §1
binder,measurement,setting,value
"TbCVNHOa (Tuber borchii), Q5MK11 (protein) MSYADSSRNAVLTNGGRTLRAECRNADGNWVTSELDLDTCIGNPNGFLGWGMQNFSHSSEDIKLEEGGRKLTCRPKTVDGGFRERQGIDLNRIQNVNGRLVFQ",glycan array binding signal (z-score),[1],0.626
same,glycan array binding signal (z-score),[2],-0.311
same,glycan array binding signal (z-score),[3],-0.935
same,glycan array binding signal (z-score),[4],-0.24
same,glycan array binding signal (z-score),[5],-0.147
same,glycan array binding signal (z-score),[6],0.203
same,glycan array binding signal (z-score),[7],-0.054
same,glycan array binding signal (z-score),[8],-0.291
same,glycan array binding signal (z-score),[9],-0.382
same,glycan array binding signal (z-score),[10],2.76
same,glycan array binding signal (z-score),[11],-0.551
same,glycan array binding signal (z-score),[12],-0.086
same,glycan array binding signal (z-score),[13],-0.072
same,glycan array binding signal (z-score),[14],0.085
same,glycan array binding signal (z-score),[15],-0.116
same,glycan array binding signal (z-score),[16],-0.531
same,glycan array binding signal (z-score),[17],-0.245
same,glycan array binding signal (z-score),[18],0.495
same,glycan array binding signal (z-score),[19],-0.508
same,glycan array binding signal (z-score),[20],-0.282
same,glycan array binding signal (z-score),[21],-0.096
same,glycan array binding signal (z-score),[22],-0.074
same,glycan array binding signal (z-score),[23],0.322
same,glycan array binding signal (z-score),[24],0.276
same,glycan array binding signal (z-score),[25],0.041
same,glycan array binding signal (z-score),[26],-0.185
same,glycan array binding signal (z-score),[27],-0.43
same,glycan array binding signal (z-score),[28],1.38
same,glycan array binding signal (z-score),[29],-0.399
same,glycan array binding signal (z-score),[30],-0.117
same,glycan array binding signal (z-score),[31],-0.173
same,glycan array binding signal (z-score),[32],-0.207
same,glycan array binding signal (z-score),[33],-0.177
same,glycan array binding signal (z-score),[34],-0.412
same,glycan array binding signal (z-score),[35],-0.8
same,glycan array binding signal (z-score),[36],-0.653
same,glycan array binding signal (z-score),[37],-0.07
same,glycan array binding signal (z-score),[38],-0.523
same,glycan array binding signal (z-score),[39],-0.298
same,glycan array binding signal (z-score),[40],-0.036
same,glycan array binding signal (z-score),[41],0.141
same,glycan array binding signal (z-score),[42],0.067
same,glycan array binding signal (z-score),[43],-0.224
same,glycan array binding signal (z-score),[44],0.335
same,glycan array binding signal (z-score),[45],-0.034

# A different layout for some results above:
binder	measurement	setting	value
TbCVNHOa (Tuber borchii), Q5MK11 (protein) MSYADSSRNAVLTNGGRTLRAECRNADGNWVTSELDLDTCIGNPNGFLGWGMQNFSHSSEDIKLEEGGRKLTCRPKTVDGGFRERQGIDLNRIQNVNGRLVFQ	glycan array binding signal (z-score)	[15]	-0.116
same	glycan array binding signal (z-score)	[21]	-0.096
same	glycan array binding signal (z-score)	[23]	0.322
same	glycan array binding signal (z-score)	[31]	-0.173
